For this assay, the target named is GFP-Dnmt1ΔPBD (Dnmt1 lacking the PBD domain) (UniProt P13864). Kind of assay: GFP-multiTrap plate binding assay, fluorescence read-out; GFP fusion held on the GFP-multiTrap plate, blocked with 3% milk, incubated with HEK293T cellular extract holding the RFP fusion for 30 min at RT; molar ratio of bound RFP fusion over GFP fusion by plate reader; only the target purified.

Chains of the proteins cited; added tags and fusions are not shown. Lines headed by an entry give the natural chain unless they say otherwise; changes in a name come on top.
UniProt P13864: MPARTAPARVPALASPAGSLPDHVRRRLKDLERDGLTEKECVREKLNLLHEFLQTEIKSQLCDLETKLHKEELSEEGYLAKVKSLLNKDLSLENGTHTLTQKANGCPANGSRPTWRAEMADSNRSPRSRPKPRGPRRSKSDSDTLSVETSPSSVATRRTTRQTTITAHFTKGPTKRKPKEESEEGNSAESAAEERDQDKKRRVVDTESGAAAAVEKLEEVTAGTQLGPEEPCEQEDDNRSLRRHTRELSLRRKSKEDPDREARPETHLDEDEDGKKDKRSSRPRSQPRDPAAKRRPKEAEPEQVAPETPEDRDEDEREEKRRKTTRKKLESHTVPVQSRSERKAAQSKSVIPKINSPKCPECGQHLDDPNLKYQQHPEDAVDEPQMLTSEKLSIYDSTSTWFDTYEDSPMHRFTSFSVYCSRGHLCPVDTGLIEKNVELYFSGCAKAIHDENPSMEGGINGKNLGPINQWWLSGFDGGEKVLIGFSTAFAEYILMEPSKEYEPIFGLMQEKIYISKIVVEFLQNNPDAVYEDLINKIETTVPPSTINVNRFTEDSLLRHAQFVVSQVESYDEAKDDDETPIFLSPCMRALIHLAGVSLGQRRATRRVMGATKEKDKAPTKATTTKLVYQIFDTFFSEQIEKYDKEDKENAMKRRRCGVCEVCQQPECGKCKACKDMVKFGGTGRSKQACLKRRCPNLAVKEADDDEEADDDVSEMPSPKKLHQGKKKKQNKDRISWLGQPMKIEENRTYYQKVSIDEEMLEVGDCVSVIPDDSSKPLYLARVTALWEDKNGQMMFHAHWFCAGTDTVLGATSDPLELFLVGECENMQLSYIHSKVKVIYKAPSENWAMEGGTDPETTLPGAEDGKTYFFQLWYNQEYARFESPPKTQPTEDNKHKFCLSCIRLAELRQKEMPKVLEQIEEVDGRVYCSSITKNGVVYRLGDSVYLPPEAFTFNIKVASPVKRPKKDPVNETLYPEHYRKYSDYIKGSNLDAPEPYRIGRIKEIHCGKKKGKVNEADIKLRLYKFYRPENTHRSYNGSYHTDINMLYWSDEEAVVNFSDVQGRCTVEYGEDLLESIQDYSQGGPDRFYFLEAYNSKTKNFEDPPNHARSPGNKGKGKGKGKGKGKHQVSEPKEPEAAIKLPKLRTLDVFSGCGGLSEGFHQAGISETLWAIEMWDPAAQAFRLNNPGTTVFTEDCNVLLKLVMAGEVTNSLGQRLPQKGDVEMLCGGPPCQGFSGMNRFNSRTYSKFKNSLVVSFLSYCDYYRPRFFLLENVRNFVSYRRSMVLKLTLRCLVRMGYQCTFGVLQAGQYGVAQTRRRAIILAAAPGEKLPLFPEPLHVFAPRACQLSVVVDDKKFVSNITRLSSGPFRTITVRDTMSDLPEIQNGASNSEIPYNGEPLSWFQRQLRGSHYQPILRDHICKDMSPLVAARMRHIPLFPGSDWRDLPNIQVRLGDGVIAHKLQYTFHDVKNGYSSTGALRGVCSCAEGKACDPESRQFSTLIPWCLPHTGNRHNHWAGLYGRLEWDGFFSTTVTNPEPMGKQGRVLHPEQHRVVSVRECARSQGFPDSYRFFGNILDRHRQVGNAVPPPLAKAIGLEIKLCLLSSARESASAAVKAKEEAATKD
UniProt P18887: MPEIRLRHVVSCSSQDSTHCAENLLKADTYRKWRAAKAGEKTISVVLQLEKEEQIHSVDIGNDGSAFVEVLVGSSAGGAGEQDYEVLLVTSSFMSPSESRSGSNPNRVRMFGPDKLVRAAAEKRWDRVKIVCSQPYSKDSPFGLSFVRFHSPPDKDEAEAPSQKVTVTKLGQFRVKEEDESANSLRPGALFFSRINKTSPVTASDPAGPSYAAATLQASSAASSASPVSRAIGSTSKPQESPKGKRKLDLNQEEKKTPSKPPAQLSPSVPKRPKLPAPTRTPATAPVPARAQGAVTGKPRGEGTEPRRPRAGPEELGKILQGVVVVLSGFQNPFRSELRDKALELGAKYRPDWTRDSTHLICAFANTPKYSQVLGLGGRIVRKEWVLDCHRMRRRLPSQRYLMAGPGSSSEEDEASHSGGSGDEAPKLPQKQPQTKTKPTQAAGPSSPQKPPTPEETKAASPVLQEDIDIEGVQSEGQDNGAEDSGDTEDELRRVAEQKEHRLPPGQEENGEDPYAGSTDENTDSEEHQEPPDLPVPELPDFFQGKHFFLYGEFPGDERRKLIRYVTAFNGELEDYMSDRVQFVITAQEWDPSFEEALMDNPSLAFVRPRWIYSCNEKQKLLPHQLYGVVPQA

This passage reports binding results from publication PMC3350483, “Versatile Toolbox for High Throughput Biochemical and Functional Studies with Fluorescent Fusion Proteins” (PLoS ONE, 2012).

Results are given in words; binding and its absence hold for the method and conditions named.

Consider RFP-Xrcc1 (from UniProt P18887 1-633), for which the binding entry is “no binding”.
